In publication PMC12828040 one finds binding data, which are given here for one substance.

Amino acid sequences for entries named in this document (tags omitted).
UniProt Q13547: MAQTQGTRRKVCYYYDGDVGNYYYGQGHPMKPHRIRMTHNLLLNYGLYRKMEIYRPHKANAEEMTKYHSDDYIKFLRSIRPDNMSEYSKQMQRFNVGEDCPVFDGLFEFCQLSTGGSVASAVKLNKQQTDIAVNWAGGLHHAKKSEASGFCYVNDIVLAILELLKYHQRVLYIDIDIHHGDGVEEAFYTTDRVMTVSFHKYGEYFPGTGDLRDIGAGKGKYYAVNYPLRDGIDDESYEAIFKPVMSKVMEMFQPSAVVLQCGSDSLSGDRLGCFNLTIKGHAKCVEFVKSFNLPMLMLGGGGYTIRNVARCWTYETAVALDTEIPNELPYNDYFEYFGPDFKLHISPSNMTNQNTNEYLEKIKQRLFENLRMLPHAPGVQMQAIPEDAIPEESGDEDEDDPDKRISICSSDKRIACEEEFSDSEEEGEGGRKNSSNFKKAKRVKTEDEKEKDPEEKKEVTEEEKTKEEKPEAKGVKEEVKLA

In the assay the target is T1, ATF3 (human (endogenous in HEC-1A / HEC-1B)) (UniProt P18847).
T1 sequence: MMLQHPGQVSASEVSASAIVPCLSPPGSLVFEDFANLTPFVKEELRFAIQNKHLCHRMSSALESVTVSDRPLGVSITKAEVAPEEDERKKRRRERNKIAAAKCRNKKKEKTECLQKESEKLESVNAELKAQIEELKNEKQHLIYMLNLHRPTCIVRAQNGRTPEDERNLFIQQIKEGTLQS
The experiment in a line: co-IP; precipitation with anti-ATF3 antibody, immunoblotting with HDAC1 antibodies; EC cells. Background: Immunoblotting shows a protein as a band on a membrane.

Results are given in words; binding and its absence hold for the method and conditions named. Binding seen in cells or lysates may run through a third protein. Some binding calls cover weakened binding; strength is not graded here.

On to HDAC1 (from UniProt Q13547 1-482), for which the binding entry is recorded as “binds”.
